In patent US20260199447A1 (US Dept. of Health and Human Services, published 2026):
No constants are given. Whether binding was seen depends on the method and setting. A result given as binding can be weak or reduced; the word gives no strength.

What was measured:
Test in all cases: flow cytometry on live infected cells
[1] = target: RRV (live cells infected with RRV) (Ross River virus (RRV))
[2] = target: ONNV (live cells infected with ONNV) (o'nyong'nyong virus (ONNV))
[3] = target: CHIKV (live cells infected with CHIKV) (chikungunya virus (CHIKV))

Measured: binding

B1: SKT05 (antibody, V domains shown)
VH: EVQLVESGAGLVQPGGSLRLSCAASGFTFSDSWMSWVRQSPGKGLEWVGRIKGKPDGETAAYAASVKGRFSISRDDSKNTLYLQMNSLKTEDTAVYYCTRDDRTSCRRGVCYAAFHSWGQGVLVTVSS
VL: DIQMTQSPSSLSASAGDRVTLTCRASQAISFYLAWYQQKPGKAPKRLIYDASELQGGVPSRFSGSGSGTDFTLSINSLQPEDSATYFCLQYDSPPFTFGPGTKVEIKR
binds: all assays above

B2: SKT20 (antibody, V domains shown)
VH: QVQVQESGPGLVKPSETLSLTCAVSSGSINDDSYYWTWIRQSPGKGLEWLGFIHGGTGKSFYNPSLESRVTISKDTSRNQFSLTLSSVSAADTAVYYCARSHFCSNTFCYGWFDVWGPGIRVTVSS
VL: DVVMTQTPLSLPITPGEPASISCRSSQSLLHSNGNTYLHWYLQKPGQSPQLLIYGGSNRASGVPDRFSGSGSGTDFTLKISKVEAEDVGVYYCVQAIAFPWTFGQGTKVEIKR
binds: all assays above
